Source: article PMC6972752
Results are given in words; binding and its absence hold for the method and conditions named. In cells and extracts the contact can be indirect. Tags and fused reporters may be left off the sequences shown. Blank lines part the entries; values can stand above or below the binder they belong to.

Chains of the proteins cited; added tags and fusions are not shown.
UniProt Q15751: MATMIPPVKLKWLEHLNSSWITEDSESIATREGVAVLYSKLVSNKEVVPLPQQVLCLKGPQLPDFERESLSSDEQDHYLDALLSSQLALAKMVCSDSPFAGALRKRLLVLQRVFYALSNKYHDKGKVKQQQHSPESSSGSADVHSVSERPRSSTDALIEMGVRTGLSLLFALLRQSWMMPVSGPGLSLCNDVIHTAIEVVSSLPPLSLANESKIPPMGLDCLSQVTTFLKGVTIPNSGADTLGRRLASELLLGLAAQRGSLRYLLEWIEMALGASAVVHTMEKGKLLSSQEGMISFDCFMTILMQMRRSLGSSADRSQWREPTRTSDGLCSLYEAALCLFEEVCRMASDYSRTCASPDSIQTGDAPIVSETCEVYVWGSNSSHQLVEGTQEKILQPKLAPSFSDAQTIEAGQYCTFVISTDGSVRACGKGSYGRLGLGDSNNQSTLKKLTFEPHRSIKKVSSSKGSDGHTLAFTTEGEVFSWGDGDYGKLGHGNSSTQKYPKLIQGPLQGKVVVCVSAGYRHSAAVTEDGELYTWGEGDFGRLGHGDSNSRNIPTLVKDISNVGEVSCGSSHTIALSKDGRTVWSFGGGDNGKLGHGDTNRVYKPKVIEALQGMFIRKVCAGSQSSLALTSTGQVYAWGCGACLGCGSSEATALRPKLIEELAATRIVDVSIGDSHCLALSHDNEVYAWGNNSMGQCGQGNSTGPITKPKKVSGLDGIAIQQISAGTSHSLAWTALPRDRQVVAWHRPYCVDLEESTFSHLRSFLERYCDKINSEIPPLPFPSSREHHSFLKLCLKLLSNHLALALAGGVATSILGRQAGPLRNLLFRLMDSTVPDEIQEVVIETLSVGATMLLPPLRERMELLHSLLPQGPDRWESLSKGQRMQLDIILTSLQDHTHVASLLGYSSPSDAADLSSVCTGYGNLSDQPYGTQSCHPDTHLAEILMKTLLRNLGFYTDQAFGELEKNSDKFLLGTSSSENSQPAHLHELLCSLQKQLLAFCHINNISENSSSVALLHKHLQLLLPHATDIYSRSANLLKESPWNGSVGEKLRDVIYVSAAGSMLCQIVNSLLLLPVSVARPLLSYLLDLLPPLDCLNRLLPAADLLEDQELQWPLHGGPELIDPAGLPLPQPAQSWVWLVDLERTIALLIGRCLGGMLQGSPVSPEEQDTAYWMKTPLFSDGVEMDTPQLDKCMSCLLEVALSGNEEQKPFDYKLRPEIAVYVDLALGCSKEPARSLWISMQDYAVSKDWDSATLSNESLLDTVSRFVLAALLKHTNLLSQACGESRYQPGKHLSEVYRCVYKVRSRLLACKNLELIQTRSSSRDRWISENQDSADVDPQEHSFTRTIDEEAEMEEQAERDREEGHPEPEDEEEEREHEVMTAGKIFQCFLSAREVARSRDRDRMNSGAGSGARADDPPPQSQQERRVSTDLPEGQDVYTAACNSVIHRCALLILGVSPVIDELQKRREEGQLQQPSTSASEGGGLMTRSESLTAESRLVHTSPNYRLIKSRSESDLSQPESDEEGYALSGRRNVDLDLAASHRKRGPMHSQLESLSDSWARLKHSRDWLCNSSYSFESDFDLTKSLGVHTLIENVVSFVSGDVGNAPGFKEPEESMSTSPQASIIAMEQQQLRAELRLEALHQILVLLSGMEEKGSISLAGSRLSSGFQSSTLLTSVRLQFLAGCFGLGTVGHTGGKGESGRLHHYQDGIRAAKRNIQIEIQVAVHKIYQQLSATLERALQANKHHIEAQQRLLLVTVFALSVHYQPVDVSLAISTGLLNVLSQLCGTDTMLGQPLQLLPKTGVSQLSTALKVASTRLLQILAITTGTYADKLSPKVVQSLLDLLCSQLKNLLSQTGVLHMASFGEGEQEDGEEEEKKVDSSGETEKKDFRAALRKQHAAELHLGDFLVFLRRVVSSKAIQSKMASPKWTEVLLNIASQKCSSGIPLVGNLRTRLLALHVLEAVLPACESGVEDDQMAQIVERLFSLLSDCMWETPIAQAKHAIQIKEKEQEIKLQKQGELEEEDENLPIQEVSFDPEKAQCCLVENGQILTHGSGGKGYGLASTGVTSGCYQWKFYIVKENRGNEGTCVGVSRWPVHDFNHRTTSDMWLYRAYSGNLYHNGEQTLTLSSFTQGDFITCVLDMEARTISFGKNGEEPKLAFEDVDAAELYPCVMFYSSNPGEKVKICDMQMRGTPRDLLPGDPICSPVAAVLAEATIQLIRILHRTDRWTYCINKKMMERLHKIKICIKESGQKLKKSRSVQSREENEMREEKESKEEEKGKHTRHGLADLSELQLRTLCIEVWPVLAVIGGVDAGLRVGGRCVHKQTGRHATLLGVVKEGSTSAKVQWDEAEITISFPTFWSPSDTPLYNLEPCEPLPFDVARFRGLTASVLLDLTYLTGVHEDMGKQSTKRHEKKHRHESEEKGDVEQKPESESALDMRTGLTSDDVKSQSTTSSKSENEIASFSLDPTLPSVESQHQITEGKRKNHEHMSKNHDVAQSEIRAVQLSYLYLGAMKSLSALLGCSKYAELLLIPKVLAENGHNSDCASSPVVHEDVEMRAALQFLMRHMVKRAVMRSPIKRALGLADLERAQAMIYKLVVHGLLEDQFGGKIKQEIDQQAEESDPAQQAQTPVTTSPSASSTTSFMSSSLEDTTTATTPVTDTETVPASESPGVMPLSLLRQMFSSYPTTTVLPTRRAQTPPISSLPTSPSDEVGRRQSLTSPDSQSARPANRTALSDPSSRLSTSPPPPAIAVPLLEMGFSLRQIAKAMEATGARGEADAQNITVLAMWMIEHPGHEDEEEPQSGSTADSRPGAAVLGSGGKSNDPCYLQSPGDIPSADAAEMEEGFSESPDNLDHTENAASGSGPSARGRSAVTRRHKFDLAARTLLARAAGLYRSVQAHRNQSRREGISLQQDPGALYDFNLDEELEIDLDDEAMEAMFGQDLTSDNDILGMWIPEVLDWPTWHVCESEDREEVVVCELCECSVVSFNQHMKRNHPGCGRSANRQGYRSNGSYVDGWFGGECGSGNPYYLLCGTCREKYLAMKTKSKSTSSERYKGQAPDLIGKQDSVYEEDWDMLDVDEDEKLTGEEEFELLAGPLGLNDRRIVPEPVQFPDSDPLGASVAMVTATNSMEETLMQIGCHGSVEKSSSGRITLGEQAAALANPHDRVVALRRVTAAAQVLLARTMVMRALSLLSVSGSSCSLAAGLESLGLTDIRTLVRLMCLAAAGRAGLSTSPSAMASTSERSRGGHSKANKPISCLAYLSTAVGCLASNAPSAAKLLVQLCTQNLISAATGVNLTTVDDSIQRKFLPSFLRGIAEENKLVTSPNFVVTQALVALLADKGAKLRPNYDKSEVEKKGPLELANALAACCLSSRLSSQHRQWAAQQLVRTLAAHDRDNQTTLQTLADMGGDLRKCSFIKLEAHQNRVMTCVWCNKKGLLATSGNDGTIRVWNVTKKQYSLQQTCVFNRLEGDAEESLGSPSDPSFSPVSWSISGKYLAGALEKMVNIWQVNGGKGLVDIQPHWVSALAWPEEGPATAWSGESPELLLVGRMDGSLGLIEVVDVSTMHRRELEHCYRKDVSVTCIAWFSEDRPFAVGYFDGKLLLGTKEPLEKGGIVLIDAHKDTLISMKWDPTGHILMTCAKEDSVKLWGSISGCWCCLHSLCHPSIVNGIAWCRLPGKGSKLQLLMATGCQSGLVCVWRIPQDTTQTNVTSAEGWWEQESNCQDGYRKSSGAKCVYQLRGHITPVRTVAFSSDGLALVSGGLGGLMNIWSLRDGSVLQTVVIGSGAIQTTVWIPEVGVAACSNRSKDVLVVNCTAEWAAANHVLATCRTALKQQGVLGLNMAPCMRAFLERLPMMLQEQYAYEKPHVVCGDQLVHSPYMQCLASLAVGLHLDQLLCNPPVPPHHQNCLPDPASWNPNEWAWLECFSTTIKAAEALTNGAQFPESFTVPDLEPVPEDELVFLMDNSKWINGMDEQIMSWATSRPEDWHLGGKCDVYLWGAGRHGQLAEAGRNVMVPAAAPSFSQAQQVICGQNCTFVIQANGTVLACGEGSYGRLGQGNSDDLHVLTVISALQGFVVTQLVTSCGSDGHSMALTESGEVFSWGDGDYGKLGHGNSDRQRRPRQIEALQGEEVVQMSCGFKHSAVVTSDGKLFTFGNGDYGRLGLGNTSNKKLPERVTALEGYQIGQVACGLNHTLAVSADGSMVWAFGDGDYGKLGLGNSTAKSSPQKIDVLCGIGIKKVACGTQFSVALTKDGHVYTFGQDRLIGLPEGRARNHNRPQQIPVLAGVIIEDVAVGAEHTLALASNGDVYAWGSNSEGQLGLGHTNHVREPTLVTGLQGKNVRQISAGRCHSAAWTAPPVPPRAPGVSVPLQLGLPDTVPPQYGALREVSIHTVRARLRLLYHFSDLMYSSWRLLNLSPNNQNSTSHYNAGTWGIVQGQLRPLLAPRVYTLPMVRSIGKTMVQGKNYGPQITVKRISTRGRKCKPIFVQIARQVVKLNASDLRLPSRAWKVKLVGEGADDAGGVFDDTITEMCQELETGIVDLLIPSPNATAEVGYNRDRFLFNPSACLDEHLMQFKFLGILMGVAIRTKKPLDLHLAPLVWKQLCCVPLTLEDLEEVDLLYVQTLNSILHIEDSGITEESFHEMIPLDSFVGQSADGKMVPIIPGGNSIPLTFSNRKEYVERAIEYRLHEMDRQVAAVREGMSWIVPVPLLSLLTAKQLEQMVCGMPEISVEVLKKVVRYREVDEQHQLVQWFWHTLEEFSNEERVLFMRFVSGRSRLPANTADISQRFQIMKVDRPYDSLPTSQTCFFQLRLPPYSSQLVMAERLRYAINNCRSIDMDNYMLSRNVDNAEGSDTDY

Biological target: ubiquitin E3 ligase HERC1 (human (endogenous in HEK-293T)) (UniProt Q15751)
Test: co-IP; supernatants of NP40 lysates of HEK-293T cells (untransfected, or transfected with Flag-MKK3) incubated at 4 °C for 2 h with anti-HERC1 polyclonal antibodies (Bvg6, 411; 363, 410) or pre-immune serum, then protein A-Sepharose for 1 h; four washes with NP40 buffer; immunoblot

binding: no binding
B1: MAPK kinase MKK3 (endogenous) (enzyme, UniProt P46734 1-347)
chain: MESPASSQPASMPQSKGKSKRKKDLRISCMSKPPAPNPTPPRNLDSRTFITIGDRNFEVEADDLVTISELGRGAYGVVEKVRHAQSGTIMAVKRIRATVNSQEQKRLLMDLDINMRTVDCFYTVTFYGALFREGDVWICMELMDTSLDKFYRKVLDKNMTIPEDILGEIAVSIVRALEHLHSKLSVIHRDVKPSNVLINKEGHVKMCDFGISGYLVDSVAKTMDAGCKPYMAPERINPELNQKGYNVKSDVWSLGITMIEMAILRFPYESWGTPFQQLKQVVEEPSPQLPADRFSPEFVDFTAQCLRKNPAERMSYLELMEHPFFTLHKTKKTDIAAFVKEILGEDS

binding: no binding
B2: Flag-MKK3 (enzyme, UniProt P46734 1-347)
chain: B1 chain
